The source of these data is patent publication US10874709B2 (CAREGEN CO., LTD., priority 2017, dated 2020).

A short description of this data set: general procedure: Fmoc solid-phase peptide synthesis; CTL resin; HoBt, Bop, DIEA. Conditions: whole synthesis.

In turn, Ac-YKSKKGGWTH came in with a crude mass of 1.15 g. The same substance returned a crude yield (scale of the general procedure 700 mg of resin) of 89.5%.
